This is an account of results in PMC12040169 (PLOS Biology, 2025).

The list shows a part of the results.

For the assay, the system named is T1, CTL2-GFP (C. trachomatis L2/434/Bu, GFP-expressing).
T1 construct: L2/434/Bu, GFP-expressing
The arrangement: species or system HeLa; Intracellular C. trachomatis growth in HeLa cells, bulk GFP fluorescence relative to DMSO. The conditions noted are these: bulk GFP, single well; 28.5 h, 10 µM; inhibitor.
`Cc1c(C(=O)N2CCC(C(=O)c3cccnc3)CC2)oc2ccccc12` [CBK283954]: the “% of control remaining” value was 123.258%.

For the molecule `O=C(NCCO)Nc1ccc2nccnc2c1` [CBK027577], the “% of control remaining” value worked out at 100%.

For the molecule `CSc1nnc2n3ncnc3c3c4c(sc3n12)CCCC4C` (centres unmarked) [CBK288542], the “% of control remaining” value turned out to be 122.84%.

With `CCc1nc2ccc(C(=O)NCc3ccc4c(c3)OCO4)cn2c1N(CCN(C)C)CC1CC1` [CBK145472], the “% of control remaining” value is given as 194.247%.

For the molecule `O=C(NC(=S)Nc1ccc(-c2nc3ccccc3o2)c(O)c1)c1cncc(Br)c1` [CBK264931], the “% of control remaining” value stood at 100%.

Turning to `Cc1cc(C)nc(SCC(=O)Nc2ccc(C(=O)O)cc2)n1` [CBK263223], the “% of control remaining” value is 106.194%.

`CS(=O)(=O)c1ccc(-n2nnnc2CN2CCC3(CCCCC3)C2)cc1` [CBK306183]: the “% of control remaining” value was 131.174%.

As for `COc1cnn(-c2ccccc2)c(=O)c1N(C)C` [CBK020317], the “% of control remaining” value amounted to 118.937%.

As to `Cc1ccccc1-c1ccccc1CC1(C(N)=O)CCN(C(=O)c2ccccc2)CC1` [CBK285721], the “% of control remaining” value was found to be 111.02%.

In the case of `Cc1nc(C)n(C(C)CNC(=O)Cn2ccc3ccc(F)cc32)n1` (centres unmarked) [CBK282612], the “% of control remaining” value was found to be 109.516%.

With `O=[N+]([O-])c1ccccc1S(=O)(=O)N1CCN(C2CCCCCC2)CC1` [CBK264171G], the “% of control remaining” value came out at 138.6%.

For `O=C1CCCN1CCOc1nccnc1-c1cc2ccccc2s1` [CBK106780], the “% of control remaining” value was determined as 100%.

Turning to `Cc1cc2cc(C(=O)NCCCN3Cc4ccccc4C3)ccc2o1` [CBK282624], the “% of control remaining” value was determined as 139.52%.

Consider `CCN1CCc2nc(NC(=O)Cc3cn4ccsc4n3)sc2C1` [CBK304534], for which the “% of control remaining” value amounted to 116.344%.

Turning to `COc1cccc(CN2CCC3(C/C=C/COc4ccccc4C(=O)NCCNC3=O)CC2)c1F` [CBK292025], the “% of control remaining” value stood at 137.394%.

As to `Brc1cn2ccnc2c(NCc2ccccn2)n1` [CBK038024], the “% of control remaining” value is on record as 186.319%.

Regarding `O=C(O)CSc1cccc([N+](=O)[O-])c1` [CBK110160], the “% of control remaining” value amounted to 76.6559%.

`CSc1nc(-n2nc(C)cc2C)c2c3c(sc2n1)COC(C)(C)C3` [CBK268906]: the “% of control remaining” value turned out to be 135.445%.

For the molecule `Cc1cc(Cl)ccc1OCCCc1nnc(S)n1C` [CBK288396], the “% of control remaining” value is 120.721%.

Regarding `Cc1cccc(C2(O)CCN(C(=O)c3ccc4nc(C)[nH]c4c3)CC2)c1` [CBK283299], the “% of control remaining” value was 140.47%.

Regarding `CCCCN1CC(C(=O)Nc2nccs2)CC1=O` (centres unmarked) [CBK288224], the “% of control remaining” value came out at 109.566%.

`CCNC(=O)Nc1cc2ccccc2c(-c2ccc(F)cc2OC)n1` [CBK085731]: the “% of control remaining” value amounted to 122.886%.

Regarding `O=C(NC1CC1)[C@@H]1C=CCN1S(=O)(=O)c1ccc(F)cc1` [CBK284294], the “% of control remaining” value is on record as 101.916%.

In the case of `Cc1cccc(/N=C2\NC(=O)C(Cc3ccc(C)c(Cl)c3)S2)n1` (centres unmarked) [CBK265597], the “% of control remaining” value was 109.89%.

For `COc1ccc2c(c1)C(=O)CC1(CCN(C(=O)/C=C/c3ccc(C)cc3)CC1)O2` [CBK156438], the “% of control remaining” value is 105.043%.

As to `CCC(C(=O)O)N1C(=O)C(=Cc2ccc(-c3ccccc3C(F)(F)F)o2)SC1=S` (centres unmarked) [CBK296985], the “% of control remaining” value stood at 131.493%.

As for `COc1ccc(OCCN2CCC(C(=O)NC(c3ccccn3)c3ccccc3OC)CC2)cc1` (centres unmarked) [CBK147938], the “% of control remaining” value is 100.419%.

Turning to `C#CCNC(=O)C1CCN(c2nc3ccccc3n2CC)CC1` [CBK283923], the “% of control remaining” value worked out at 107.029%.

Turning to `C[C@@H]1C[C@H](C(F)(F)F)n2nc(C3CCCN3C(=O)C3CC3)cc2N1` (some centres unmarked) [CBK285432], the “% of control remaining” value is given as 114.756%.

`COc1ccc(C(NC(=O)Cc2ccc(-n3nnnc3C)cc2)c2ccccc2)cc1` (centres unmarked) [CBK285537]: the “% of control remaining” value is reported as 125.926%.

As for `COc1ccc(N2CCN(Cc3nc4c(c(=O)n(C)c(=O)n4C)n3CC(C)=O)CC2)cc1` [CBK269465], the “% of control remaining” value came out at 72.704%.

Consider `Cc1cnc(CNS(=O)(=O)c2cnn(-c3ccccc3)c2C)cn1` [CBK062335], for which the “% of control remaining” value was found to be 115.991%.

In the case of `CCn1c2ccccc2c2cc(CN3CCN(Cc4cc(OC)cc(OC)c4)CC3)ccc21` [CBK263164], the “% of control remaining” value is on record as 100%.

As to `NC(=O)C1(Cc2cccc(-c3cccs3)c2)CCN(C(=O)Cc2cccc(F)c2)CC1` [CBK285783], the “% of control remaining” value came out at 147.487%.

`O=C1S/C(=C\c2ccc(F)c(Br)c2)C(=O)N1c1cccc(Cl)c1` [CBK095450]: the “% of control remaining” value is 111.678%.

Turning to `COc1ncc(-c2nccnc2OCc2ccccc2)c(OC)n1` [CBK106748], the “% of control remaining” value was found to be 100.105%.

Regarding `Cc1nc2c(C(=O)NCCC3OCCO3)cnn2c(C)c1Cc1cccnc1` [CBK162159], the “% of control remaining” value turned out to be 130.709%.

`CCOC(=O)c1cnc2c(C)c(Cl)ccc2c1NCCCN1CCOCC1` [CBK265296]: the “% of control remaining” value was 115.572%.

As for `COc1c(C(=O)O)cc(C)c2c1CCC2C` (centres unmarked) [CBK013617], the “% of control remaining” value is reported as 128.855%.

Turning to `CCOc1ccc(N(CCC#N)C(=O)Cn2nc(C(=O)O)c3ccccc3c2=O)cc1` [CBK297502], the “% of control remaining” value was determined as 163.74%.

For the molecule `N#Cc1cccc(Cn2cc(NC(=O)NCCc3cccs3)cn2)c1` [CBK043824], the “% of control remaining” value was 86.2542%.

On to `CCCc1n[nH]c(C(C)C)c1C(=O)OCC` [CBK115724], for which the “% of control remaining” value is 107.391%.

Consider `CCN(CC)C(=O)CN1CCC(Oc2nccnc2OCc2cc(C)on2)CC1` [CBK082959T], for which the “% of control remaining” value is given as 102.11%.

For `CN(CCc1cn[nH]c1)C(=O)CCc1ccc(Cl)cc1` [CBK283183], the “% of control remaining” value came out at 89.6066%.

With `O=C(O)CCC(=O)Nc1ccc(C(=O)O)cc1` [CBK260952], the “% of control remaining” value came to 100%.

As to `CCOC(=O)N/N=C(/C)c1ccc(Br)s1` [CBK019480], the “% of control remaining” value is 135.149%.

`Clc1ccc(-n2c(COc3cccc4cccnc34)nnc2SCc2ccccc2)cc1` [CBK268502]: the “% of control remaining” value came out at 121.207%.

On to `Cc1cc(NC(=O)CN2CCN(Cc3ccccc3C#N)CC2)no1` [CBK305644], for which the “% of control remaining” value is 138.512%.

Consider `Cn1cccc1C(=O)N[C@H]1C[C@H]2C(=O)Nc3cc(Cl)ccc3C(=O)N2C1` [CBK289364], for which the “% of control remaining” value came out at 122.718%.

`COC(=O)c1ccc(CC(C)C)nc1SC1=NCCCN1` [CBK005294C]: the “% of control remaining” value came out at 129.666%.

As to `Cc1noc(C)c1C(=O)N[C@H]1CO[C@H]2[C@@H]1OC[C@H]2OCc1ccccc1` [CBK289458], the “% of control remaining” value turned out to be 99.578%.

With `CCn1c(=O)n(CC(=O)N(C)C2CCCCC2)c2cccnc21` [CBK283786], the “% of control remaining” value was 144.36%.

Turning to `O=C(c1cccnc1)N1CCN(C(=O)c2ccco2)CC1` [CBK072684], the “% of control remaining” value was 94.8602%.

`Cc1ccc(S(N)(=O)=O)cc1C(=O)NC(C)CCc1ccccc1` (centres unmarked) [CBK296671]: the “% of control remaining” value amounted to 141.83%.

As to `CC(C)(C)OC(=O)NC1CCN(C(=O)Nc2ccc(OCc3ccccc3)cc2)CC1` [CBK086602], the “% of control remaining” value is recorded as 98.5191%.

Consider `OC(CN1CCC(O)(c2ccccc2F)CC1)c1ccccc1` (centres unmarked) [CBK282490], for which the “% of control remaining” value amounted to 98.2209%.

For `Cc1cc(C)c(S(=O)(=O)NCCSCCC(=O)O)c(C)c1` [CBK013358], the “% of control remaining” value is given as 130.975%.

As to `COc1ccc(CCNC(=O)CN2CCCC2c2cnn(C)c2)cc1` (centres unmarked) [CBK305371], the “% of control remaining” value was found to be 122.7%.

Take `Cc1ccc2c(C(=O)Nc3sc4c(c3C(N)=O)CCCCC4)cc(-c3ccccn3)nc2c1C` [CBK267749]: the “% of control remaining” value worked out at 130.725%.

In the case of `COCc1nc2n(n1)CC(NC(C)C(C)OCc1ccccc1)CC2` (centres unmarked) [CBK304724], the “% of control remaining” value was 105.371%.

On to `CSC(C)CCN1CCn2nc(CNc3cnccn3)cc2C1` (centres unmarked) [CBK307376], for which the “% of control remaining” value was 153.657%.

In the case of `CCc1cc(=O)[nH]c(-c2ccc(N(C)CC(C)O)nc2)n1` (centres unmarked) [CBK306484], the “% of control remaining” value worked out at 109.95%.

Consider `CC(=O)Nc1ccc(S(N)(=O)=O)cc1Cl` [CBK028784], for which the “% of control remaining” value is given as 124.957%.

Consider `CCc1nnc(NS(=O)(=O)c2ccc(OC(F)(F)F)cc2)s1` [CBK026672], for which the “% of control remaining” value is 108.167%.

Regarding `CN1CCN(C(=S)Nc2ccc(S(N)(=O)=O)cc2)CC1` [CBK265223], the “% of control remaining” value stood at 121.312%.

With `O=C(Nc1ccc(I)cc1C(=O)NCCN1CCOCC1)c1ccco1` [CBK266211], the “% of control remaining” value is given as 131.718%.

As for `Fc1ccc(-c2cncc(Nc3ccc4c(c3)OC(F)(F)C(F)(F)O4)n2)c(F)c1` [CBK065692], the “% of control remaining” value is recorded as 156.019%.

Turning to `Cc1c(Br)c(C(F)(F)F)nn1CC(=O)Nc1cc(C(F)(F)F)ccc1Cl` [CBK087518], the “% of control remaining” value amounted to 100%.

Regarding `CNC(=O)CSc1nnc2[nH]c(=O)c(C)c(C)n12` [CBK287687], the “% of control remaining” value was found to be 97.3974%.

For `O=C(CSc1nnc(-c2cccnc2)o1)Nc1ccccc1` [CBK287742], the “% of control remaining” value worked out at 122.324%.

With `CS(=O)(=O)c1ccc(Cn2ccnc(OC3CCN(C(=O)c4ccc(C#N)cc4)CC3)c2=O)cc1` [CBK161804], the “% of control remaining” value is given as 104.084%.

Turning to `Cc1nn(C)cc1C(C)NC(=O)c1cn2cccc(C)c2n1` (centres unmarked) [CBK281731], the “% of control remaining” value was found to be 146.479%.

Consider `COc1ccc(-c2ccnc(N[C@H]3CO[C@H]4[C@@H]3OC[C@@H]4NC(=O)c3ccccc3)n2)cc1` [CBK289526], for which the “% of control remaining” value is given as 108.44%.

With `CC(NC(=O)Cn1c(=O)oc2ccc(Cl)cc21)C1CC2CCC1C2` (centres unmarked) [CBK281636], the “% of control remaining” value came to 112.134%.

Consider `COCCNC(=O)c1cc(-c2ccccc2C)cnc1NS(C)(=O)=O` [CBK106422], for which the “% of control remaining” value is listed as 100%.

Take `Cc1cnc2c(C(=O)Nc3cccc(CCc4ccncc4)c3)cnn2c1` [CBK285558]: the “% of control remaining” value is 124.215%.

For the molecule `CN(C)CCNC(=O)c1cccc(-c2cncc(N3CCN(c4ccncc4)CC3)n2)c1` [CBK065391], the “% of control remaining” value was found to be 159.248%.

In the case of `CCN1CC2(CCN(CC3CC3)CC2)c2ccccc21` [CBK136987], the “% of control remaining” value is on record as 88.8909%.

For `CN(C)CC1CCCCN1C(=O)C1C2CCCCC21` (centres unmarked) [CBK282087], the “% of control remaining” value is given as 102.973%.

`CC(C)n1ccnc1CN1CCn2nc(CNc3cnccn3)cc2C1` [CBK306902]: the “% of control remaining” value is 141.02%.
